Results are given in words; binding and its absence hold for the method and conditions named. Binding seen in cells or lysates may run through a third protein. Some entries that bind do so weakly or less than the wild type.

The chains behind the UniProt entries cited, without tags or fusion partners.
UniProt P08183: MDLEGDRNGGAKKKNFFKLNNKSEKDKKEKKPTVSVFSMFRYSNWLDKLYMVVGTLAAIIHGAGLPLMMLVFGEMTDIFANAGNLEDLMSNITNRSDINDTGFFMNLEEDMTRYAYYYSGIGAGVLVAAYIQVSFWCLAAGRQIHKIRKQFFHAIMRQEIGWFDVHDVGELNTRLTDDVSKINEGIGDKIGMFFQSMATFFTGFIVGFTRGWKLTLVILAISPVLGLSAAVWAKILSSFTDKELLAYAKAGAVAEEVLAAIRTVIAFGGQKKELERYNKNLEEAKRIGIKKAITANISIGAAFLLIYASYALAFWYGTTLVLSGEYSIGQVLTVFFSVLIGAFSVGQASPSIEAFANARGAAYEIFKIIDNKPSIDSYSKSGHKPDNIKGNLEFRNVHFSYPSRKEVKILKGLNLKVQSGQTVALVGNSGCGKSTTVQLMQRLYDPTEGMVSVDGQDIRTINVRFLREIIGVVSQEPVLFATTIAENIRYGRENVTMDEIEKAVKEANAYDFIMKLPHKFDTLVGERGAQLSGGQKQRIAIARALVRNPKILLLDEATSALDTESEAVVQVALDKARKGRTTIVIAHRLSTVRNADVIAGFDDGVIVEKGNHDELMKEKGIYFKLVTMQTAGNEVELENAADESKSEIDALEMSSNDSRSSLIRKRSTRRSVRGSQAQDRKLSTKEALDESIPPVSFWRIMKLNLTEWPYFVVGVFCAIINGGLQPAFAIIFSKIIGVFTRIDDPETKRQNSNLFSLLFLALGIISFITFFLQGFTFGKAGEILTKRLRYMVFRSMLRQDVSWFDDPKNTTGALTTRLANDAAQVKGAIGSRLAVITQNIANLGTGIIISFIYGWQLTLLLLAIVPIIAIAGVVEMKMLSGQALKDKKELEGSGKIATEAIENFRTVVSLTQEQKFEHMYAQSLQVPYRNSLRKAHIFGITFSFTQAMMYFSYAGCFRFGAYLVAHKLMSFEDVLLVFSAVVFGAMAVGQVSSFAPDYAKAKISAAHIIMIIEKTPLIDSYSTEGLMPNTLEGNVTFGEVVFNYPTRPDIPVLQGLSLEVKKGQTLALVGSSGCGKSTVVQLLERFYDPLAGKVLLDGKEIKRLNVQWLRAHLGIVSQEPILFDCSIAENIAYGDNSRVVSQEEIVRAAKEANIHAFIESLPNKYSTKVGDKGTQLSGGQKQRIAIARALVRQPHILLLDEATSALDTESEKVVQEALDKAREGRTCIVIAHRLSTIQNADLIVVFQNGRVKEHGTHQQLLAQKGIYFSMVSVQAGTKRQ

2 molecules from article PMC10095748 can be followed below.

Experiment [1] deals with T1, astrocyte elevated gene-1 (AEG-1) (human (endogenous in MCF-7/DDP)) (UniProt Q86UE4).
T1 sequence: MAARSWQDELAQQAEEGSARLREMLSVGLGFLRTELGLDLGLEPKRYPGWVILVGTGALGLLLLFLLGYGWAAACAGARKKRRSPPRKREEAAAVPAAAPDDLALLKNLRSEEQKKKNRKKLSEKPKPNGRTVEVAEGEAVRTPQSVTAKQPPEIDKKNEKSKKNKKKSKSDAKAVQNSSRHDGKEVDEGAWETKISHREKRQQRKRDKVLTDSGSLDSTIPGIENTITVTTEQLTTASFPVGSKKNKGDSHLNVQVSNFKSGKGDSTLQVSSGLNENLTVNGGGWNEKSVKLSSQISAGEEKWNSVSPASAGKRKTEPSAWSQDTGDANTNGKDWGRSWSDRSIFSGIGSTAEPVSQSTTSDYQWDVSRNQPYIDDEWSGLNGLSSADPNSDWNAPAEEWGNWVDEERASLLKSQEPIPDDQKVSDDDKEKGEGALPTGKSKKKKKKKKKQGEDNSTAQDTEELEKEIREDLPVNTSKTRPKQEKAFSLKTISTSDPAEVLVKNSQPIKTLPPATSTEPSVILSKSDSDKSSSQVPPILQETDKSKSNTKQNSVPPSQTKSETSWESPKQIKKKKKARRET
Put plainly: co-IP; MCF-7/DDP cell lysates incubated overnight with anti-AEG-1 antibody (1 ug) or IgG and protein A/G beads; washed with lysis buffer; immunoblot with anti-AEG-1, anti-RRS1 and anti-MDR1.

Experiment [2] has as its target multidrug resistance protein 1 (MDR1) (human (endogenous in MCF-7/DDP)) (UniProt P08183). The description is as above.

As to “multidrug resistance protein 1 (MDR1) (from UniProt P08183 1-1280)”, the binding result in experiment [1] is recorded as “binds”.

B1: human regulator of ribosome synthesis 1 (RRS1) (protein, UniProt Q15050 1-365)
chain: MEGQSVEELLAKAEQDEAEKLQRITVHKELELQFDLGNLLASDRNPPTGLRCAGPTPEAELQALARDNTQLLINQLWQLPTERVEEAIVARLPEPTTRLPREKPLPRPRPLTRWQQFARLKGIRPKKKTNLVWDEVSGQWRRRWGYQRARDDTKEWLIEVPGNADPLEDQFAKRIQAKKERVAKNELNRLRNLARAHKMQLPSAAGLHPTGHQSKEELGRAMQVAKVSTASVGRFQERLPKEKVPRGSGKKRKFQPLFGDFAAEKKNQLELLRVMNSKKPQLDVTRATNKQMREEDQEEAAKRRKMSQKGKRKGGRQGPGGKRKGGPPSQGGKRKGGLGGKMNSGPPGLGGKRKGGQRPGGKRRK
Regarding B1, the binding result in experiment [1] was “binds”; in experiment [2], “no binding”.
